PMC10681728, “Rad53 regulates the lifetime of Rdh54 at homologous recombination intermediates” (Nucleic Acids Research, 2023)
No constants are given. Whether binding was seen depends on the method and setting. Binding seen in cells or lysates may run through a third protein. A result given as binding can be weak or reduced; the word gives no strength.

Amino acid sequences for entries named in this document (tags omitted). A change or cut given only in a name is not applied to a line headed by its entry.
UniProt P22216: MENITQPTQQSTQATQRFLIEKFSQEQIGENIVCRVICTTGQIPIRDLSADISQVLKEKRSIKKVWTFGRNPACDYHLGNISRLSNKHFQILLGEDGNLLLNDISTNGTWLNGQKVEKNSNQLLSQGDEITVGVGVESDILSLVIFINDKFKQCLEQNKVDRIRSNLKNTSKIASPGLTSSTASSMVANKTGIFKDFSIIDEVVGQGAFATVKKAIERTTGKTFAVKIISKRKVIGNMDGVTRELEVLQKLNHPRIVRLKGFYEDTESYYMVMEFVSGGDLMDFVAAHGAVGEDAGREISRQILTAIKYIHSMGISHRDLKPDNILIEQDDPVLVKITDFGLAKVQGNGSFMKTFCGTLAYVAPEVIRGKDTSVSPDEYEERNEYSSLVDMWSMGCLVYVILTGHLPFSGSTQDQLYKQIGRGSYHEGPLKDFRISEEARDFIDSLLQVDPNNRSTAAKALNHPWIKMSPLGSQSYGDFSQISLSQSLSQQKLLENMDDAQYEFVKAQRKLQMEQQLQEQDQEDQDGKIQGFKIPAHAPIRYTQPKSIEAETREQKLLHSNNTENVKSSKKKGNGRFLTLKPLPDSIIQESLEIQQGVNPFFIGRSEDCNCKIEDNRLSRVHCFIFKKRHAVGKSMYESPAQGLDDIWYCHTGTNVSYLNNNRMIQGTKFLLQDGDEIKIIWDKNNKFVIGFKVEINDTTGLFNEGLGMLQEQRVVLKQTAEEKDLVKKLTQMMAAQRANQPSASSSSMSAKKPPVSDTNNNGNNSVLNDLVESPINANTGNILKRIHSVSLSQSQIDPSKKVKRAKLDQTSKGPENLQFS
UniProt P38086: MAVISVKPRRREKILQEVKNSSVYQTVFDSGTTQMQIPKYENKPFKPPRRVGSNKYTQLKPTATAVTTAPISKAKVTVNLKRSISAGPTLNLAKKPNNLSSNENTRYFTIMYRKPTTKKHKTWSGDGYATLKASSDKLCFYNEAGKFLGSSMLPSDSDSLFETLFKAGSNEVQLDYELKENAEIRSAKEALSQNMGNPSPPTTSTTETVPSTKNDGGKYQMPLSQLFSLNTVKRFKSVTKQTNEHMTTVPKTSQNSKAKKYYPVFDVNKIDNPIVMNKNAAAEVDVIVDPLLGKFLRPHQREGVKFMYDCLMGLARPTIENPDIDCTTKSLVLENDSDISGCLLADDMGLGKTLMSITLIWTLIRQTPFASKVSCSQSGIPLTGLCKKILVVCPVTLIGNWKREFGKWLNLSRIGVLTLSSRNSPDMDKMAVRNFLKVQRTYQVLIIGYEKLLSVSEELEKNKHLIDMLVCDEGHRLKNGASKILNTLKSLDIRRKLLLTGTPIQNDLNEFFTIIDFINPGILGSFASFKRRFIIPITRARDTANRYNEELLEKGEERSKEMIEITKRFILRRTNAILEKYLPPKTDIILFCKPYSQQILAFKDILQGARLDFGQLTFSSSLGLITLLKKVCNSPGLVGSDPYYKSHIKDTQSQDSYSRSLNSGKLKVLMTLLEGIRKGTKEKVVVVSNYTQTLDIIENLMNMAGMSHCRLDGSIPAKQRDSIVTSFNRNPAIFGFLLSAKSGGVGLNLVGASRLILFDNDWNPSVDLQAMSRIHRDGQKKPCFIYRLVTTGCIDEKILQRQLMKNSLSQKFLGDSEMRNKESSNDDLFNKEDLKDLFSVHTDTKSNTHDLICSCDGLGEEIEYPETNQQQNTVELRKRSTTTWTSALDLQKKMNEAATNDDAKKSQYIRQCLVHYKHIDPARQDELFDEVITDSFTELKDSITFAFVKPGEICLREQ

Biological target: Rad53 (S. cerevisiae (endogenous in yeast)) (UniProt P22216)
Experiment: co-IP; yeast whole cell extract (300 mM NaCl lysis, 500 mM NaCl washes), anti-RAD53 on Dynabeads Protein G overnight at 4°C, blot with anti-HA; cells with 2% galactose (HO break induced) or 2% dextrose for 2 h

binding: binds
Substance: Rdh54 (HA-tagged, in yeast) (from UniProt P38086)
